No constants are given. Whether binding was seen depends on the method and setting.
Target: Tom20-Rab35 wild-type (mitochondrial-targeted Rab35) (UniProt Q15286)
Assay: mitochondrial mislocalisation (Tom20 tethering) by fluorescence microscopy; bait tethered to mitochondria by a Tom20 tag and co-expressed with the candidate partner (or stained for the endogenous one) in HUVECs; relocation of the partner to mitochondria read by imaging and Pearson's coefficient

Amino acid sequences for entries named in this document (tags omitted). A change or cut given only in a name is not applied to a line headed by its entry.
UniProt Q15286: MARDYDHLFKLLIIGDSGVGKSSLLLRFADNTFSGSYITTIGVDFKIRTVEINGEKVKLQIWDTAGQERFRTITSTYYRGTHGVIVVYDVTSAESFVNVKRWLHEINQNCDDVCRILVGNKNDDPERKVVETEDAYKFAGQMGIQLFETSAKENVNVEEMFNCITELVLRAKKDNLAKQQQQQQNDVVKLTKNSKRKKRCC
UniProt O00592: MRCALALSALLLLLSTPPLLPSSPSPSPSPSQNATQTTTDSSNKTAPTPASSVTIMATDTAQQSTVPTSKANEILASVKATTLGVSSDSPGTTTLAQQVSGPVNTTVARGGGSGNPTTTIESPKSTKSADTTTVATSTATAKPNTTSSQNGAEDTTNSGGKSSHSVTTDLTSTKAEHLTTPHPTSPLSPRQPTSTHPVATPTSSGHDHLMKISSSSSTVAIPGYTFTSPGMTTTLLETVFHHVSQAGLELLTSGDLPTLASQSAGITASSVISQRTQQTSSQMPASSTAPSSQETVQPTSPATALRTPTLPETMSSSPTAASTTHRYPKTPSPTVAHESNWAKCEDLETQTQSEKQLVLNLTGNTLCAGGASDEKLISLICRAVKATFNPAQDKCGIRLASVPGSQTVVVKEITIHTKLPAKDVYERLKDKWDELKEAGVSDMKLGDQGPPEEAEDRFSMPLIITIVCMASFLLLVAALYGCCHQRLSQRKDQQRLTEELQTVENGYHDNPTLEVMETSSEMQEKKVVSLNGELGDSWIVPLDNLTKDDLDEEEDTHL
UniProt Q15057: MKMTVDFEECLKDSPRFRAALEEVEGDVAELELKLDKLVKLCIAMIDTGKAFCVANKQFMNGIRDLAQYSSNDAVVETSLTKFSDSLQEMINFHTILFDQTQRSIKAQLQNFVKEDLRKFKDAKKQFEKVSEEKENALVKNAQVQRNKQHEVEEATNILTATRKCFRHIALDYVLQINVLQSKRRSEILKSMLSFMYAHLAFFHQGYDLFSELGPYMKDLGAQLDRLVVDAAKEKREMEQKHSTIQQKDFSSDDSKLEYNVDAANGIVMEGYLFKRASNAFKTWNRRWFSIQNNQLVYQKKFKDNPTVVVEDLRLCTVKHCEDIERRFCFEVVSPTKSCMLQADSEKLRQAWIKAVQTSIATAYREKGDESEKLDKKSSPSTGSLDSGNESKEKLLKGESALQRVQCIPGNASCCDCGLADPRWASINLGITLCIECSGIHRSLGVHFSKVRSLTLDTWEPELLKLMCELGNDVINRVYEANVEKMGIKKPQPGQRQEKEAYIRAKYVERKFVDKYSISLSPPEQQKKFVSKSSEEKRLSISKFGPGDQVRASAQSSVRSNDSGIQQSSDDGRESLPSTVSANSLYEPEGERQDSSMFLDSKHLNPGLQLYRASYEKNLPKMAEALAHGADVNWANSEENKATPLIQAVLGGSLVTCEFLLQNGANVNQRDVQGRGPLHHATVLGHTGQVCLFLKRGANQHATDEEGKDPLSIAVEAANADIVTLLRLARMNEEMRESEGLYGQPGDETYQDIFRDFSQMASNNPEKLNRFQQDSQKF

| binding | Substance |
| --- | --- |
| no binding | human podocalyxin cytoplasmic domain (residues 476–551) (from UniProt O00592) (domain or fragment) |
| no binding | ACAP2 with the ankyrin repeat domain deleted (from UniProt Q15057) |
